# Test results published in PubChem BioAssay AID624291 (National Center for Advancing Translational Sciences (NCATS), 2012).
# Hit rate of the full screen: of about 350,000 compounds, about 220 (0.063%) were called active. Inconclusive means that the source gave no clear call. Such entries were picked first, then a sample of the others. Calls follow the shape of the dose curve; as a rule, active = well fitted activation curve with a large enough effect; inconclusive = small, poorly fitted or top-dose-only effect; inactive = no such curve, though single readings can be large or run the other way. Potencies of inconclusive entries are doubtful fits and often do not repeat.
# Assay: qHTS for Activators of Integrin-Mediated Alleviation for Muscular Dystrophy; also: nearly all actives have a fitted effect of over 60% in size;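 as to activation: 100% = response of the positive control SU9516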
# Conditions: alpha7betagal myoblasts, beta-gal FDG fluorescence, 48 h; activation: at 38.3 µM (top of the series)
# Outline: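 alpha7betagal+/- myoblasts (passage 13, 250/well) treated 48 h at 37C with compounds at 1:260 dilution of DMSO stock. Lysed, then beta-galactosidase activity read as FDG fluorescence (ex 480/em 540) after 30 min, with pre-read for autofluorescence.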
# Potency is read from the fitted curve at half-maximal effect.
Structure (SMILES),Potency,activation
Cc1c(Cl)cccc1NC(=O)Cn1c(CCC(=O)O)ccc1-c1ccccc1,"inconclusive: 25.1 µM [activator, single point]",
COc1ccc(CSc2nc(O)cc(=O)n2CC(C)C)cc1F,"inconclusive: 11.2 µM [activator, single point]",
COc1cccc(C(=O)COc2ccccc2N2C(=O)C3C4C=CC(C4)C3C2=O)c1 (stereo unspecified),"inconclusive: 28.2 µM [activator, single point]",
Oc1ccc(Br)cc1CNc1cccc2cccnc12,,inactive: -8.86%
NS(=O)(=O)c1ccc(N2N=C(c3ccccc3)CC2c2ccccc2Br)cc1 (stereo unspecified),,inactive: 28.2%
CCOC(=O)C1CN(S(=O)(=O)c2cccs2)c2ccc(CC(=O)OC)cc2O1 (stereo unspecified),"inconclusive: 1.58 µM [activator, partial curve, poor fit]",
CCCn1c(N)c(N(CCOC)C(=O)c2ccccc2F)c(=O)[nH]c1=O,"inconclusive: 5.01 µM [activator, single point]",
Cc1ccc(N2C(=NC(=O)c3ccccc3)SC3CS(=O)(=O)CC32)cc1 (stereo unspecified),"inconclusive: 14.1 µM [activator, single point]",
Cc1ccc(S(=O)(=O)c2cc3c(=O)n4ccccc4nc3n(C3CCCC3)c2=N)cc1,"inconclusive: 5.01 µM [activator, single point]",
CC(=O)Nc1ccc(S(=O)(=O)NCCC(=O)Nc2ccc(C)c(F)c2)cc1,"inconclusive: 3.16 µM [activator, single point]",
COc1ccc(CNC(=O)C2CCCN(S(=O)(=O)c3c(C)noc3/C=C/N(C)C)C2)cc1 (stereo unspecified),"inconclusive: 2.24 µM [activator, full curve, poor fit]",
O=C(NCCNC(=O)c1ccccc1F)c1ccco1,"inconclusive: 28.2 µM [activator, single point]",
CC1CC2=C(C(=O)O1)C(c1ccccc1)Nc1ccccc1N2 (stereo unspecified),"inconclusive: 2.82 µM [activator, partial curve, poor fit]",
O=C(O)Cc1ccc(S(=O)(=O)N2CCCC2)s1,"inconclusive: 28.2 µM [activator, single point]",
CCC1CCCCN1CCCNC(=O)c1ccc(N2CCCC2=O)cc1 (stereo unspecified),"inconclusive: 28.2 µM [activator, single point]",
CN(C)c1ccc(/C=C2/SC(=O)N(CCN=C3NS(=O)(=O)c4ccccc43)C2=O)cc1,,inactive: 3.78%
COc1ccc(C(=O)COC(=O)C2CCCN2C(=O)C23CC4CC(CC(C4)C2)C3)cc1 (stereo unspecified),"inconclusive: 5.01 µM [activator, single point]",
CC(C)COc1ccc(-c2nn(-c3ccccc3)cc2/C=C2/SC(=S)N(CC(=O)O)C2=O)cc1,"inconclusive: 5.01 µM [activator, single point]",
O=C(/C=C/c1ccccc1)OCC(=O)c1c[nH]c2ccccc12,,inactive: -33.9%
FC(F)(F)c1nc(NCc2ccccc2)c2nnn(Cc3ccccc3)c2n1,"inconclusive: 11.2 µM [activator, single point]",
O=C(CN1C(=O)NC2(CCCC2)C1=O)N1CCN(S(=O)(=O)c2ccccc2)CC1,"inconclusive: 12.6 µM [activator, partial curve, poor fit]",
N#Cc1ccc(-c2ccco2)nc1SCC(=O)c1ccc(Cl)cc1,,inactive: -52.2%

# A few values from above.
# Entry for O=C(O)Cc1ccc(S(=O)(=O)N2CCCC2)s1 under Potency: inconclusive: 28.2 µM [activator, single point]
# Entry for CCCn1c(N)c(N(CCOC)C(=O)c2ccccc2F)c(=O)[nH]c1=O under Potency: inconclusive: 5.01 µM [activator, single point]

# Going on with the list.

Structure (SMILES),Potency,activation
O=C(COc1ccc2c(c1)OCO2)Nc1nncs1,,inactive: 6.57%
COc1cc(S(=O)(=O)NCc2ccccc2)ccc1F,"inconclusive: 1.26 µM [activator, full curve]",
CCCCN1C(C(=O)Nc2cc(C)on2)=C(O)c2ccccc2S1(=O)=O,"inconclusive: 5.01 µM [activator, single point]",
CCn1cc(C(=O)NN)c(=O)c2cc(F)c(N3CCOCC3)cc21,"inconclusive: 22.4 µM [activator, single point]",
COCCCNC(=O)c1ccccc1Oc1ccccc1,,inactive: -17.1%
Cc1ccc(S(=O)(=O)N2CCN(C(=O)Cc3ccc(S(=O)(=O)N4CCOCC4)s3)CC2)cc1,,inconclusive: 20% [activator]
Cc1ccc(CN2CCN(Cc3cc4ccccc4o3)CC2CCO)cc1 (stereo unspecified),"inconclusive: 1.58 µM [activator, partial curve, poor fit]",
Cc1ccc2oc(C(=O)Nc3cc(C)on3)c(C)c2c1,"inconclusive: 14.1 µM [activator, single point]",
Cc1ccc(NC(=O)C(c2ccccc2)C2CCCC2)cc1 (stereo unspecified),"inconclusive: 2.51 µM [activator, full curve, poor fit]",
OC(c1ccccc1)c1nccc2ccccc12 (stereo unspecified),,inactive: -5.13%
CC(=O)N1CCN(Cc2nc(-c3cccc(Cl)c3)no2)CC1,"inconclusive: 4.47 µM [activator, single point]",
CC(NC(=S)Nc1ccc(OC(F)F)cc1OC(F)F)C(C)(C)C (stereo unspecified),"inconclusive: 5.01 µM [activator, partial curve, poor fit]",
O=C(NNc1ccc(Cl)cc1)C1CCC1,"inconclusive: 1 µM [activator, partial curve, poor fit]",
Cc1ccc(N(C(=O)CNC(=O)c2ccco2)C(C(=O)NC2CCCC2)c2ccncc2)cc1F (stereo unspecified),"inconclusive: 4.47 µM [activator, single point]",
COc1ccccc1NC(=O)c1cccs1,"inconclusive: 11.2 µM [activator, partial curve, poor fit]",
Cc1cc(Br)ccc1NC(=S)NCCc1ccccc1,"inconclusive: 5.01 µM [activator, single point]",
COc1ccccc1C(=O)NCCC(=O)Nc1ccc(S(=O)(=O)N2CC(C)CC(C)C2)cc1 (stereo unspecified),"inconclusive: 2.82 µM [activator, partial curve, poor fit]",
Cc1ccc(S(=O)(=O)/N=C(/Sc2ccccc2C(=O)O)c2ccccc2)cc1,"inconclusive: 5.01 µM [activator, single point]",
CCOc1cc(/C=C2\C(=O)N(CCC#N)N=C2C)ccc1OCC(N)=O,,inactive: 3.8%
O=c1ccc(S(=O)(=O)N2CCCC2)cn1Cc1nc(-c2ccccc2)no1,"inconclusive: 5.01 µM [activator, single point]",
COc1cccc(NS(=O)(=O)c2c(C)cc(C)cc2C)c1,"inconclusive: 22.4 µM [activator, single point]",
Cc1ccc(-n2c(CNC(=O)c3cccs3)nnc2SCC(=O)NO)cc1,"inconclusive: 28.2 µM [activator, single point]",

Structure (SMILES),Potency,activation
Cc1ccc(C)c(NC(=O)CCN2C(=O)C3CC=CCC3C2=O)c1 (stereo unspecified),"inconclusive: 11.2 µM [activator, single point]",
Cc1c(Cl)cccc1NC(=S)N(Cc1cccnc1)Cc1ccccc1Cl,,inactive: 14.1%
CCCCN(C)C(=O)C1CCN(Cc2cccnc2)CC1,"inconclusive: 2.82 µM [activator, single point]",
Cn1c(SCC(=O)Nc2cccc(S(=O)(=O)N3CCOCC3)c2)nnc1-c1ccncc1,"inconclusive: 3.55 µM [activator, full curve, poor fit]",
CSc1nc(-c2ccco2)nn1C(=O)c1ccc(C)cc1,,inactive: -2.84%
Cc1ccc(/C=C\c2nccc3c2[nH]c2ccccc23)cc1,,inactive: -18.8%
COc1ccc(S(=O)(=O)NCC2CCCN(Cc3ccc(OC)cc3F)C2)cc1 (stereo unspecified),"inconclusive: 0.398 µM [activator, partial curve, poor fit]",
COCCNc1nc2c(c(=O)n(Cc3ccccc3F)c(=O)n2C)n1C,"inconclusive: 28.2 µM [activator, single point]",
CS(=O)(=O)c1ccc2nc(NC(=O)C3CC(=O)N(c4ccccc4)C3)sc2c1 (stereo unspecified),"inconclusive: 2.82 µM [activator, single point]",
O=C(c1ccc2c(c1)OCO2)N1CCN(c2ccc(Cl)cc2)CC1,,inactive: 0.641%
CC(NC(=O)c1cccnc1Sc1ccccc1)c1ccc(S(N)(=O)=O)cc1 (stereo unspecified),"inconclusive: 2.24 µM [activator, single point]",
CCOc1ccc(S(=O)(=O)NCc2ccco2)c2ccccc12,,inactive: -10.9%
CCN(CC(=O)NCc1cccs1)C(=O)COc1ccc(C(N)=O)cc1,"inconclusive: 11.2 µM [activator, partial curve, poor fit]",
O=c1c(CO)cc(CO)cc(CO)c1O,"inconclusive: 5.01 µM [activator, single point]",
COc1cc(/C=C2\SC(=S)N(NC(=O)c3ccncc3)C2=O)ccc1O,"inconclusive: 3.16 µM [activator, single point]",
O=C(c1cccc(N2C(=O)C3C4C=CC(C4)C3C2=O)c1)N1CCN(c2ccccc2F)CC1 (stereo unspecified),"inconclusive: 5.01 µM [activator, single point]",
CCCNC(=O)CN1CCC(c2nc3ccccc3[nH]2)CC1,"inconclusive: 3.98 µM [activator, single point]",
COc1ccc([N+](=O)[O-])cc1/C=N/NC(=O)c1nonc1N,"inconclusive: 3.16 µM [activator, single point]",
Cc1[nH]n(-c2ccccc2)c(=O)c1N=Nc1ccc2c(c1)OCCO2,"inconclusive: 28.2 µM [activator, single point]",
COC(=O)COc1cccc(NC(=O)c2cc(OC)cc(OC)c2)c1,"inconclusive: 10 µM [activator, single point]",
CC(=O)NNc1ncnc2ccccc12,"inconclusive: 10 µM [activator, partial curve, poor fit]",
CC(C)C1Cc2c(sc3ncnc(NN)c23)CO1 (stereo unspecified),"inconclusive: 11.2 µM [activator, single point]",
